In PubChem BioAssay AID2073 (Sanford-Burnham Center for Chemical Genomics, 2009):
Out of some 290,000 compounds screened, about 570 (0.2%) were called active. The shares of active, inactive and inconclusive entries below differ from those in the screen. Rule as the data show it: active = inhibition mostly above about 51% (no sharp cut-off); inconclusive = no clear call, values can overlap the other calls; inactive = mostly below about 53%.

Amino acid sequences for entries named in this document (tags omitted).
UniProt Q00975, whole entry, looked up: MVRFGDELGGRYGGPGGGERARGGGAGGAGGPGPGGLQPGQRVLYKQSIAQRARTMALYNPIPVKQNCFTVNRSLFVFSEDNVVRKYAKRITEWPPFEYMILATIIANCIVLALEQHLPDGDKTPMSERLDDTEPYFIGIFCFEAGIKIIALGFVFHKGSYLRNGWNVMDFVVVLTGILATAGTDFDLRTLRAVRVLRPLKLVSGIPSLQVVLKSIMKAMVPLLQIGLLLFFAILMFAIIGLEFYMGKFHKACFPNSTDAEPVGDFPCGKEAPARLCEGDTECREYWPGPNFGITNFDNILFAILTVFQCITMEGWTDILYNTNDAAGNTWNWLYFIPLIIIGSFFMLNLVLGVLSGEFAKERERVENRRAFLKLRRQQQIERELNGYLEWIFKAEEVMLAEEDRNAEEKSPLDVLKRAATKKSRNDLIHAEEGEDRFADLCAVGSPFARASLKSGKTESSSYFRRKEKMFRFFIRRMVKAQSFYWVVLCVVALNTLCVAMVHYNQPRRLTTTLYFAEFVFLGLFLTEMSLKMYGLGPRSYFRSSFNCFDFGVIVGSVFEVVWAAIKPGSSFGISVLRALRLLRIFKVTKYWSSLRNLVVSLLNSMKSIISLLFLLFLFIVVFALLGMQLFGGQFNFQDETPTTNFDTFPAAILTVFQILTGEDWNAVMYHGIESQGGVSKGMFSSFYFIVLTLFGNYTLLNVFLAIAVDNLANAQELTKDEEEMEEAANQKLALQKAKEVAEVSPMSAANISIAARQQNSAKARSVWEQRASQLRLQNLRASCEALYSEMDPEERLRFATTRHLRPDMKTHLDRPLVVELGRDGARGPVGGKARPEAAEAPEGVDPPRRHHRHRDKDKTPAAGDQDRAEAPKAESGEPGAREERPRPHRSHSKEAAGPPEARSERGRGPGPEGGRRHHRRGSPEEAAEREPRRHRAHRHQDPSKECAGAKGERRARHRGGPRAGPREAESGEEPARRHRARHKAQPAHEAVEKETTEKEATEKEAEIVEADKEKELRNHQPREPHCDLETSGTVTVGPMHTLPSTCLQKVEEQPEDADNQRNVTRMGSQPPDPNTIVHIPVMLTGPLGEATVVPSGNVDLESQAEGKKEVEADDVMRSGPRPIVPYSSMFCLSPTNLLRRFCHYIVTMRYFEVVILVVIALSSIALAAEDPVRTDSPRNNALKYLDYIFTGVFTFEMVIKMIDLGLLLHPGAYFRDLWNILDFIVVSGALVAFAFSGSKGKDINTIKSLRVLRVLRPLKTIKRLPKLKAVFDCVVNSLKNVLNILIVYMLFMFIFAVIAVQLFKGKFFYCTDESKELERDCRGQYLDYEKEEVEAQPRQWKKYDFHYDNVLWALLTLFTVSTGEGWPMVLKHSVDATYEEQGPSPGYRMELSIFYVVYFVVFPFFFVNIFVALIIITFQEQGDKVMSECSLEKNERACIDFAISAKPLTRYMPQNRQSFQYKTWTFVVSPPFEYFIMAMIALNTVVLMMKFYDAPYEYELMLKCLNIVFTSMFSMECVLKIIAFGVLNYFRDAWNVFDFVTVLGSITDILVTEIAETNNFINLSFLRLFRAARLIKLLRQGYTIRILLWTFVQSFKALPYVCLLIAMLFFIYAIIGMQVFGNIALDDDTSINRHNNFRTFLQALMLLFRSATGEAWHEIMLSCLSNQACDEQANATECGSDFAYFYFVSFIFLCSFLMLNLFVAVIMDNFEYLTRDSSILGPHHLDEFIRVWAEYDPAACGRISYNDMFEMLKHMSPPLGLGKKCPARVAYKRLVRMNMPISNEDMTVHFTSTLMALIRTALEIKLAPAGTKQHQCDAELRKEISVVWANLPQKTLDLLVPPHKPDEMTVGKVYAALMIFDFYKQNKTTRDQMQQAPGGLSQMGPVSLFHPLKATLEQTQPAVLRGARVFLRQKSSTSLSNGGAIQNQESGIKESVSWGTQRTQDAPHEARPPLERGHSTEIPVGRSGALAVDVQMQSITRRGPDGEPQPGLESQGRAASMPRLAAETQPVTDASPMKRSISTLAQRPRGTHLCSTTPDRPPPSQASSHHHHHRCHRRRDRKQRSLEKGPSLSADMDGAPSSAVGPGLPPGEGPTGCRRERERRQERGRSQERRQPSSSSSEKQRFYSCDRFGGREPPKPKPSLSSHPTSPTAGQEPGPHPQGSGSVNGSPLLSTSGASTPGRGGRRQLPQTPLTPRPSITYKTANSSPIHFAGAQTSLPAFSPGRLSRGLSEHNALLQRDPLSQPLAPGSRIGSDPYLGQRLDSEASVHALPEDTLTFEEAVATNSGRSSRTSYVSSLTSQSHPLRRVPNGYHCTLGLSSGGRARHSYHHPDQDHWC

Each compound was assayed against Voltage-dependent N-type calcium channel subunit alpha-1B (Homo sapiens) (UniProt Q00975) (assay: disruptors of CaV2.2 binding to Mint1 – biochemical, HTRF (AID 2073)). Details: HTRF protein-protein interaction, Mint1-CaV2.2; at 20 µM; active compounds read high.

Structure (SMILES) | inhibition
CCOc1ccc(N(CC(=O)Nc2ccccc2C)S(=O)(=O)c2c(C)noc2C)cc1 | inconclusive: 68.8%
COc1ccc(-c2nnc(SCC(=O)NCc3cccs3)n2C(C)C)cc1 | inactive: -14.7%
CCOc1ccc(CN(C)CC(=O)Nc2cccc(S(=O)(=O)N(C)c3ccccc3)c2)cc1 | inconclusive: 73.4%
CCCc1ncc(CN2CCCCC2C(=O)Nc2ccc(Oc3ccccc3)nc2)cn1 (stereo not given) | inconclusive: 65%
COc1ccc(NC(=O)CN2CCC3(O)CCCCC3C2c2cc(OC)ccc2OC)cc1 (stereo not given) | inconclusive: 51.4%
O=C(O)CCNS(=O)(=O)c1ccc(Oc2ccccc2)cc1 | inactive: -1.3%
Cc1nc(C)c(C(=O)Nc2ncc([N+](=O)[O-])s2)o1 | inactive: 33.7%
Cc1ccc(CNC(=O)c2ccc3c(c2)NC(=O)CS3)cc1 | inactive: -5.9%
CC(C)NS(=O)(=O)c1ccc(NC(=O)C(C)Oc2ccc(C(=O)c3ccccc3)cc2)cc1 (stereo not given) | inconclusive: 65.1%
CCOC(=O)CN1C(=O)C(=O)c2cccc(C)c21 | inconclusive: 68%
O=c1oc2c(O)c(O)cc3c(=O)oc4c(O)c(O)cc1c4c23 | inactive: 9.6%
COC(=O)C1C(O)=C(C=NCc2ccccc2)C(=O)CC1(C)C (stereo not given) | inconclusive: 79.8%
Cc1cccc2cc(-c3nc4ccc(C(=O)O)cc4[nH]3)c(=O)oc12 | inconclusive: 66%
CC1(C)CN(c2ccccc2)N(C(=O)c2ccc(C#N)cc2)C1=O | inconclusive: 82.8%
Cc1ccc(CSCc2ccc(C(=O)NCCCN3CCOCC3)o2)cc1 | inconclusive: 65.1%
O=S(=O)(CC(c1ccccc1)N1CCCCC1)c1ccc(Cl)cc1 (stereo not given) | inconclusive: 68.5%
Cc1ccc(C)c(SCC(=O)NC(=O)Nc2ccc3c(c2)OCCO3)c1 | inactive: 1.2%
COc1cc(C(=O)NCCOC(=O)c2cccc(N(C)C)c2)cc(OC)c1OC | inconclusive: 62.1%
C=CCON1C(=O)c2ccccc2C1=O | inconclusive: 85.6%
O=C(O)CC(Cc1ccccc1)(C(=O)O)c1ccccc1 (stereo not given) | inconclusive: 64%
O=C(NCCc1ccc(C(F)(F)F)cc1)C1CCC(=O)N(CCCN2CCCC2=O)C1 (stereo not given) | inconclusive: 54%
COc1ccc(Oc2ccc(N/C=C3\CCCC3=O)cc2)cc1 | inconclusive: 69.2%
Cc1cc(C2=NNC(=NC3CC3)SC2)c(C)n1Cc1ccco1 | inactive: 26.3%

Structure (SMILES) | inhibition
S=c1nc[nH]c2c1cnn2-c1ccccc1 | inconclusive: 51.7%
CCOc1ccc(N=CNc2ccc(OCC)cc2)cc1 | inconclusive: 79.2%
CSc1nc(-c2ccco2)cc(-c2ccccc2)c1C#N | inactive: 15.4%
Cc1ccc(CNC(=O)c2ccc(S(=O)(=O)Nc3c(C)n(C)n(-c4ccccc4)c3=O)cc2)cc1 | inactive: 0.9%
O=C(COC(=O)c1ccccc1Nc1ccccc1F)c1ccccc1 | inconclusive: 84.8%
CCCN1CCN(CC(=O)Nc2nnc(CC)s2)CC1 | inconclusive: 51.2%
COc1ccccc1-c1nnc2n1N=C(C)CS2 | inconclusive: 81.4%
Cc1ccc(N2CCN(/N=C/C=C/c3ccccc3)CC2)cc1 | inactive: 2.8%
CCc1cc2c(=O)nc3n(c2s1)Cc1ccccc1/C3=C(/O)c1ccccc1Cl | inconclusive: 59%
Oc1ccc(Cl)cc1C=Nc1ccc2c3c(cccc13)CC2 | inactive: 50.4%
CCCn1c(SCc2cc(=O)[nH]c3ccccc23)nc2c1c(=O)n(C)c(=O)n2C | inconclusive: 61.7%
O=C1c2cccc3c(N4CCCCC4)ccc(c23)C(=O)N1CCO | inactive: 24.6%
CCN(CC)CCN(C(=O)c1ccc2c(c1)OCCO2)c1nc2ccc(C)cc2s1 | inactive: -5.5%
S=C(NCc1ccccc1)NC1CCCCC1 | inconclusive: 63.5%
Oc1ccc(N=C/C=C/c2ccc(Br)cc2)cc1-c1nc2ccccc2s1 | active: 62.9%
O=C(OCc1ccc(O)cc1)c1c(-c2ccsc2)oc2ccc(N3CCOCC3)cc12 | inconclusive: 59.9%
Cc1cccc(/C=C/c2nc3ccccc3c(=O)[nH]2)c1 | inconclusive: 86.6%
CCCNC(=O)C1CCC(CNS(=O)(=O)c2cccc3nsnc23)CC1 (stereo not given) | inconclusive: 91.4%
CC(C)(C)SCCSC1=CC(=O)CC(c2ccccc2)C1 (stereo not given) | inconclusive: 72.5%
COc1cc(C2CC(c3ccccc3)=NN2c2ccccc2)ccc1OCC(=O)O (stereo not given) | inconclusive: 54.2%
Cc1ccc(NC(=O)CN2CCc3cc4c(cc3C2C)OCCCO4)cc1 (stereo not given) | inconclusive: 76.1%
O=C(CN1C(=O)/C(=C\c2ccc(F)cc2)Oc2ccccc21)NCc1ccco1 | inconclusive: 55.4%
CN1C(=S)N(c2ccccc2)C(=O)/C1=C/c1ccco1 | inconclusive: 51.6%

Nothing new here: an excerpt of the list.
Structure (SMILES) | inhibition
O=C(NCCc1ccc(C(F)(F)F)cc1)C1CCC(=O)N(CCCN2CCCC2=O)C1 (stereo not given) | inconclusive: 54%
COc1ccc(Oc2ccc(N/C=C3\CCCC3=O)cc2)cc1 | inconclusive: 69.2%
Cc1cc(C2=NNC(=NC3CC3)SC2)c(C)n1Cc1ccco1 | inactive: 26.3%
S=c1nc[nH]c2c1cnn2-c1ccccc1 | inconclusive: 51.7%
CCOc1ccc(N=CNc2ccc(OCC)cc2)cc1 | inconclusive: 79.2%
CSc1nc(-c2ccco2)cc(-c2ccccc2)c1C#N | inactive: 15.4%
Cc1ccc(CNC(=O)c2ccc(S(=O)(=O)Nc3c(C)n(C)n(-c4ccccc4)c3=O)cc2)cc1 | inactive: 0.9%
O=C(COC(=O)c1ccccc1Nc1ccccc1F)c1ccccc1 | inconclusive: 84.8%
CCCN1CCN(CC(=O)Nc2nnc(CC)s2)CC1 | inconclusive: 51.2%
COc1ccccc1-c1nnc2n1N=C(C)CS2 | inconclusive: 81.4%
Cc1ccc(N2CCN(/N=C/C=C/c3ccccc3)CC2)cc1 | inactive: 2.8%
CCc1cc2c(=O)nc3n(c2s1)Cc1ccccc1/C3=C(/O)c1ccccc1Cl | inconclusive: 59%
Oc1ccc(Cl)cc1C=Nc1ccc2c3c(cccc13)CC2 | inactive: 50.4%
CCCn1c(SCc2cc(=O)[nH]c3ccccc23)nc2c1c(=O)n(C)c(=O)n2C | inconclusive: 61.7%
O=C1c2cccc3c(N4CCCCC4)ccc(c23)C(=O)N1CCO | inactive: 24.6%
CCN(CC)CCN(C(=O)c1ccc2c(c1)OCCO2)c1nc2ccc(C)cc2s1 | inactive: -5.5%
S=C(NCc1ccccc1)NC1CCCCC1 | inconclusive: 63.5%
Oc1ccc(N=C/C=C/c2ccc(Br)cc2)cc1-c1nc2ccccc2s1 | active: 62.9%
O=C(OCc1ccc(O)cc1)c1c(-c2ccsc2)oc2ccc(N3CCOCC3)cc12 | inconclusive: 59.9%
Cc1cccc(/C=C/c2nc3ccccc3c(=O)[nH]2)c1 | inconclusive: 86.6%
CCCNC(=O)C1CCC(CNS(=O)(=O)c2cccc3nsnc23)CC1 (stereo not given) | inconclusive: 91.4%
CC(C)(C)SCCSC1=CC(=O)CC(c2ccccc2)C1 (stereo not given) | inconclusive: 72.5%
COc1cc(C2CC(c3ccccc3)=NN2c2ccccc2)ccc1OCC(=O)O (stereo not given) | inconclusive: 54.2%

The listing continues:

Structure (SMILES) | inhibition
CC1CN(S(=O)(=O)c2ccccc2)C(C)CN1S(=O)(=O)c1ccccc1 (stereo not given) | inactive: 2.3%
Cn1cc([N+](=O)[O-])c(C(=O)NCc2ccco2)n1 | inactive: -1.5%
COc1cc(S(=O)(=O)NC2CCCC2)ccc1F | inconclusive: 53.6%
CN(C(=S)Nc1ccc(SC(F)F)cc1)c1ccc(O)cc1 | active: 56.1%
CCOc1c(CNCCN2CCOCC2)cccc1OC | inconclusive: 50.9%
O=C(O)CC1S/C(=N\N=C/c2ccccc2)N(c2ccc(O)cc2)C1=O (stereo not given) | inconclusive: 65.7%
COc1ccc(C(=O)NCCCOc2cccc(NC(C)=O)c2)cc1 | inactive: 21.8%
CCN(CC)CCNC(=O)c1cn(C)c2ccc(S(=O)(=O)N(C)C3CCCCC3)cc2c1=O | inconclusive: 90.5%
COc1cccc(C(C(=O)NC(C)(C)C)N(C(=O)CCC(=O)Nc2cc(C)on2)C(C)(C)C)c1OC (stereo not given) | inactive: -7.6%
CCNC(=O)CN(c1ccc(CC)cc1)S(C)(=O)=O | inconclusive: 60.8%
Cc1cc(F)c(F)c(C(=O)NC2CC2)c1Cl | inconclusive: 71.9%
Nc1cnn(C2CCCO2)c(=O)n1 (stereo not given) | inconclusive: 63%
CCN(CC)c1ccc2c(-c3ccc(S(=O)(=O)O)cc3S(=O)(=O)[O-])c3ccc(=[N+](CC)CC)cc-3oc2c1 | inconclusive: 57.5%
COc1cc(CCCN2C(=O)C(=O)NC[C@@H]2C(C)O)cc(OC)c1OC (stereo not given in full) | inconclusive: 83.9%
COC(=O)c1ccc2c(=O)n(CC3CCCO3)c(SCC(=O)NCCc3ccc(S(N)(=O)=O)cc3)nc2c1 (stereo not given) | inconclusive: 77.4%
Cc1ccc(NC(=S)Nc2cccc3cnccc23)cc1 | inactive: 21.8%
C=CC[n+]1c(-c2ccc(C)cc2)csc1NNC(=O)Nc1ccccc1 | inconclusive: 55.7%
CN(C)C(=O)CCC(=O)N1CCCC(N2CCN(c3cccc(C(F)(F)F)c3)CC2)C1 (stereo not given) | inactive: 5.4%
CCOC(=O)C1=C(C)NC2=C(C(=O)C(C(=O)OCC)C(c3ccco3)C2)C1c1ccccn1 (stereo not given) | inconclusive: 80.6%
CCN(CC)c1ccc(C(=O)N/N=C(\C)c2cccc(OC)c2)cc1 | inconclusive: 67.6%
COC(=O)c1cccc(NC(=O)CCCOc2cccc(C)c2)c1 | inconclusive: 61.8%
COc1ccc(CN2CCN(C3CCOCC3)CC2CCO)c(C)c1C (stereo not given) | inconclusive: 67.3%
COc1ccccc1CCN1CCCC(CN(C)C(=O)CCC(N)=O)C1 (stereo not given) | inconclusive: 83.3%

Structure (SMILES) | inhibition
CCOc1c(C)cnc2c1c(=O)n(Cc1cccc(Cl)c1)c(=O)n2C | inconclusive: 89.9%
O=C(Nc1ccc(NC(=O)c2ccccn2)cc1)C(=O)Nc1ccc2c(c1)OCCO2 | inconclusive: 78.2%
C=C(C)Cn1c(N2CCCC2)nc2c1c(=O)[nH]c(=O)n2C | inconclusive: 85%
Cc1cc(C(=O)C(C)Cl)c(C)n1Cc1ccco1 (stereo not given) | inconclusive: 81.2%
Cc1ccc(-n2ncc3c(=O)[nH]cnc32)c(C)c1 | inconclusive: 64.9%
COc1ccc(Cl)cc1S(=O)(=O)N1CCN(CC(=O)C(C)(C)C)CC1 | inconclusive: 71.4%
c1ccc(-n2cc(CNCCc3cscn3)c(-c3ccc4c(c3)OCO4)n2)cc1 | inconclusive: 71.4%
O=C(Cn1c2ccc(F)cc2c2nc3n(c(=O)c21)CCS3)Nc1ccc(Cl)cc1F | inconclusive: 50%
COCCn1c(=NC(=O)c2cc(Cl)sc2Cl)sc2cc(S(N)(=O)=O)ccc21 | inactive: 38.7%
O=C(N/N=C/C=C/c1ccc2c(c1)OCO2)c1ccc([N+](=O)[O-])cc1 | inconclusive: 54.3%
COC(=O)c1ccc(OCCOc2ccccc2C)cc1 | inactive: 26.5%
N=c1c(S(=O)(=O)c2ccc(Br)cc2)cc2c(=O)n3ccccc3nc2n1Cc1ccco1 | inconclusive: 74.6%
NC(N)=NC(=S)Nc1ccc(Cl)cc1 | inconclusive: 51.4%
COC(C[C@H](O)C[C@@H](O)[C@H](C)OCc1ccccc1)OC | inconclusive: 81.1%
Cc1cccc(N(CC(=O)N/N=C/c2ccccc2C(=O)O)S(C)(=O)=O)c1C | inconclusive: 50.6%
CCC1=C/C(=C/c2sc3ccccc3[n+]2CC)CC(C)(C)C1 | inconclusive: 96.9%
CCn1c(=NC(=O)c2ccc(S(=O)(=O)N3CCOCC3)cc2)sc2cccc(OC)c21 | inconclusive: 62%
OCCN(CCO)c1ncnc2c1sc1nc(N3CCOCC3)c3c(c12)CCCC3 | inactive: 16.9%
CN(C)c1ccc(-n2cccc2/C=N/n2cnnc2)cc1 | inconclusive: 74.1%
COc1ccc(N2C(=O)NC(=O)C2=O)cc1 | inactive: -3.9%
COC(=O)c1ccccc1NC(=O)c1ccccc1N(C)S(=O)(=O)c1ccccc1 | inconclusive: 79.1%
